# Measurements as given in the supplement of paper PMC10338343.
# ± gives the standard deviation. The list shows a part of the results. The uncertainty is large for many entries.
# System: EfPiwi piRISC loaded with L1MC piRNA (26 nt)
# Assay: pre-steady-state target cleavage rate (min^-1); guide: L1MC piRNA 5'p-UAACUAAAUACUAUGCAAGCUGUAGG; MIWI and MILI are mouse PIWI proteins and EfPiwi is from a freshwater sponge; tags in brackets are library labels; higher = faster piRNA-guided slicing of the target
# Conditions: auxiliary factor: 500 nM Ephydatia muelleri Gtsf1
# Experimental: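 Cleave-'n-Seq: a library of target RNAs (target site in constant flanks) at […] was incubated with 1 nM active freshwater sponge Ephydatia fluviatilis Piwi piRISC (synthetic 5'-monophosphorylated piRNA guide) with or without 500 nM EmGtsf1 at 33 °C for 1 min to 16 h. Uncleaved targets were sequenced and the pooled three trials fitted to a burst-and-steady-state model to give the pre-steady-state cleavage rate (min^-1). Sequence is the target site only. Fits with R² ≤ 0 are excluded.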
row,Sequence,pre-steady-state target cleavage rate
1,UCCUGGAUGUCCUUGCAUAGUAAAUAGUAA,0.000648 ± 0.0075
2,UCCUGGAUGUGCUUGCAUAGUAUUAUCUAA,0.000488 ± 0.0061
3,UCCUGGAUCUGCUUGCAUAGAAUUUAGUUA,0.00144 ± 0.0032
4,UCCUGCUACGAGCUUGCAUAGUAUUUAGUUA,0.00866 ± 0.0022
5,UCCUGGAUGUCCUUGCAUAGUUUUUACUUA,0.000266 ± 0.0088
6,UCCUGGAUGUCCUUGCGUAGUAUUUAGUUA,0.00159 ± 0.0035
7,UCCUGCUACAGCUUGCAUUCUAUUUAGUUA,0.001 ± 0.0042
8,UCCUGGAACUGCUUGGAUAGUAUUUAGUUA,0.0527 ± 0.014
9,UCCUGGUACAGCUUGCAUAGUAUUUAGUGUA,0.00435 ± 0.0027
10,UCCUGCAACAGCUUGCAUAGUAUAUAGUUA,0.00844 ± 0.0024
11,UCCUCCAACAGCUUGCAUAGUAUUUAGAAA,0.00461 ± 0.0019
12,UCCUGCUACAGCUUGCUAUGUAUUUUCAAA,0.000876 ± 0.0062
13,UCCUGGUAGAGCUUGGAUAGUAUUUAGUUA,0.004 ± 0.0023
14,UCCUGGAUGUGCUUCGUUAGUAUUUAGUAA,0.000293 ± 0.012
15,UCCUGGUACAGCUUGCAUUCUAUUUAGUUA,0.000324 ± 0.022
16,UCCUGCUACAGCUUCGUUAGUAUUUACAAA,0.000295 ± 0.01
17,UCCUGGUACAGCUUGCAUAGUAUUAUCUAA,0.00312 ± 0.0027
18,UCCUGGAUGUCGAAGCAUAGUAUUUGAGUUA,0.0002 ± 0.018
19,UCCUGGAUGAGCUUGCAUAGUGAUUUAGUUA,0.000572 ± 0.0057
20,UCCUGGUACAGCUUGCAUAGUAUUUAAUUA,0.00206 ± 0.0058
21,UCCUGCAACAGCUUGCAUUGUAUUUAGUUA,0.0331 ± 0.0081
22,UCCUGGAUCAGCAAGCAUAGUAUUUAGAAA,0.00126 ± 0.0036

# Same assay, conditions: auxiliary factor: none (no Gtsf1)
row,Sequence,pre-steady-state target cleavage rate
1,UCCUGGAUGUCCUUGCAUAGUAAAUAGUAA,0.000424 ± 0.014
2,UCCUGGAUGUGCUUGCAUAGUAUUAUCUAA,0.000538 ± 0.011
3,UCCUGGAUCUGCUUGCAUAGAAUUUAGUUA,0.000606 ± 0.012
4,UCCUGCUACGAGCUUGCAUAGUAUUUAGUUA,0.000686 ± 0.0083
5,UCCUGGAUGUCCUUGCGUAGUAUUUAGUUA,0.000734 ± 0.01
6,UCCUGGUACAGCUUGCAUAGUAUUUAGUGUA,0.00154 ± 0.0082
7,UCCUGCAACAGCUUGCAUAGUAUAUAGUUA,0.00136 ± 0.0062
8,UCCUCCAACAGCUUGCAUAGUAUUUAGAAA,0.00059 ± 0.0094
9,UCCUGCUACAGCUUGCUAUGUAUUUUCAAA,0.000237 ± 0.015
10,UCCUGGUAGAGCUUGGAUAGUAUUUAGUUA,0.000232 ± 0.043
11,UCCUGCUACAGCUUCGUUAGUAUUUACAAA,0.000359 ± 0.015
12,UCCUGGUACAGCUUGCAUAGUAUUAUCUAA,0.000492 ± 0.014
13,UCCUGGAUGUCGAAGCAUAGUAUUUGAGUUA,0.000423 ± 0.018
14,UCCUGGAUGAGCUUGCAUAGUGAUUUAGUUA,0.00097 ± 0.011
15,UCCUGGUACAGCUUGCAUAGUAUUUAAUUA,0.000607 ± 0.032
16,UCCUGCAACAGCUUGCAUUGUAUUUAGUUA,0.000645 ± 0.012
17,UCCUGGAUCAGCAAGCAUAGUAUUUAGAAA,0.000182 ± 0.037
18,UCCUGGAUGUCGAAGCAUAGAAUUUUGUUA,0.000111 ± 0.032
